# Literature values as cited in patent publication US12440501B2, “Cannabinoid compositions and methods of use thereof for immune modulation” (SRIN Therapeutics, Inc., priority 2019, dated 2025).
# Some entries share one result that the patent states for a list of compounds.
# Test system: BRAF V600E mutation-positive advanced melanoma
# Conditions: clinical trial data
smiles,measurement,value
CC(C)(C)c1nc(-c2cccc(NS(=O)(=O)c3c(F)cccc3F)c2F)c(-c2ccnc(N)n2)s1 [dabrafinib],time within which resistance occurs,6 to 7 months
